Source: PubChem BioAssay AID1259254 (NCATS, 2017)

Aim: 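Finding genes that stop cells copying their DNA twice in one cycle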 (primary screen)
Cells: human HCT116 colorectal cancer cells
Reagent: single siRNA against human genes
Duration: 3 days
Detection: 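Imaged Hoechst DNA stain sorts each cell into a cycle phase by DNA amount; per plate, G2 fraction set to 0% for non-targeting and 100% for GMNN siRNA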
Reading the numbers: G2 robust z-score: higher = more G2 cells, more excess DNA replication
Rule for the call: 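Active siRNAs have a G2 robust z of 5 or more median absolute deviations over the median, which in these data means about 38% or higher of GMNN control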
The deposit covers about 59,000 reagents; below is an unselected part. About 1,550 of them (2.6%) were called active. 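G2 share is only a proxy for re-replication; each gene was hit by three separate siRNAs, and active genes were retested.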 A number with no mark means an inactive call. The numbers tell different reagents against one gene apart. Not all columns of the deposit are shown. The record does not give: the amount of reagent.

ARMC5 #1: G2 robust z-score = -0.281
ARMC5 #2: G2 robust z-score = 0.27
ARMC5 #3: G2 robust z-score = -0.721
TXLNGY #1: G2 robust z-score = -0.794
TXLNGY #2: G2 robust z-score = 0.858
TXLNGY #3: G2 robust z-score = 1.2
TXLNGY #4: G2 robust z-score = -0.912
TXLNGY #5: G2 robust z-score = 0.433
TXLNGY #6: G2 robust z-score = 4.12
ADGRG3 #1: G2 robust z-score = -1.92
ADGRG3 #2: G2 robust z-score = 1.78
ADGRG3 #3: G2 robust z-score = -0.807
CDK5RAP3 #1: G2 robust z-score = 0.768
CDK5RAP3 #2: G2 robust z-score = 0.919
CDK5RAP3 #3: G2 robust z-score = -0.486
MMAA #1: G2 robust z-score = -0.602
MMAA #2: G2 robust z-score = 0.756
MMAA #3: G2 robust z-score = -1.21
PRICKLE4 #1: G2 robust z-score = 1.01
PRICKLE4 #2: G2 robust z-score = 0.0709
PRICKLE4 #3: G2 robust z-score = 0.702
LINC01348 #1: G2 robust z-score = -0.623
LINC01348 #2: G2 robust z-score = -0.606
LINC01348 #3: G2 robust z-score = -0.833

2 entries already listed, arranged by “G2 robust z-score”, descending:
TXLNGY #5: G2 robust z-score = 0.433
TXLNGY #4: G2 robust z-score = -0.912
